These are yes or no findings as the source states them, for the method shown. Binding seen in cells or lysates may run through a third protein. Some binding calls cover weakened binding; strength is not graded here. Where a sequence is shown, tags or fusion partners need not be part of it.

By UniProt entry, the sequences of proteins in these tests, tags left out.
UniProt P55060: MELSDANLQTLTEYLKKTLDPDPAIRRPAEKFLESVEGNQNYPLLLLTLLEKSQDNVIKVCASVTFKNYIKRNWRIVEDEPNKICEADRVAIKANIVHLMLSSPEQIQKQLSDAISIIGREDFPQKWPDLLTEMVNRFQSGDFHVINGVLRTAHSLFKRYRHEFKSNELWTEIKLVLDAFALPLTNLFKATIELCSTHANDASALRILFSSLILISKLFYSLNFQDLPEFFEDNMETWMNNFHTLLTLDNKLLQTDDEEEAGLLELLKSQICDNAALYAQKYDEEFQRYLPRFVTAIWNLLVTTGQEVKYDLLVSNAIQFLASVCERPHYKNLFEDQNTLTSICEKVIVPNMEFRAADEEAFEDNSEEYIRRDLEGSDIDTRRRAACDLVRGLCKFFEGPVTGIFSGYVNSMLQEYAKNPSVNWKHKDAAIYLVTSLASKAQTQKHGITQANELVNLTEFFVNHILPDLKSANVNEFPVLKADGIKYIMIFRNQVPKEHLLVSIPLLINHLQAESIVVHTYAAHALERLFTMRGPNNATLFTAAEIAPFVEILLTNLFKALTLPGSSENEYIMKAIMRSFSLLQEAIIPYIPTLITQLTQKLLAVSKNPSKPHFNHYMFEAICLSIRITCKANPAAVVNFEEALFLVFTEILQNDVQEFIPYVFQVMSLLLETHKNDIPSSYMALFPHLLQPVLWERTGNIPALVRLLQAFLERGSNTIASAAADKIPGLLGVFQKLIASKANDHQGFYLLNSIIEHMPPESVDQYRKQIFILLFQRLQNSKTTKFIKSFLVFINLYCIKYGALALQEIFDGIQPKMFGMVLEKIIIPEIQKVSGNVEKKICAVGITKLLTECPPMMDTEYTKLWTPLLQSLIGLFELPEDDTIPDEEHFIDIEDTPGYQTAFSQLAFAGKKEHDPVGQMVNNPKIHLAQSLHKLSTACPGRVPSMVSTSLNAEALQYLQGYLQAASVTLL

We go through one substance from publication PMC8027484.

The assay deals with T1, 3×Flag-tagged-FLVCR1 (feline leukemia virus subgroup C receptor 1) (UniProt Q9Y5Y0).
T1 sequence: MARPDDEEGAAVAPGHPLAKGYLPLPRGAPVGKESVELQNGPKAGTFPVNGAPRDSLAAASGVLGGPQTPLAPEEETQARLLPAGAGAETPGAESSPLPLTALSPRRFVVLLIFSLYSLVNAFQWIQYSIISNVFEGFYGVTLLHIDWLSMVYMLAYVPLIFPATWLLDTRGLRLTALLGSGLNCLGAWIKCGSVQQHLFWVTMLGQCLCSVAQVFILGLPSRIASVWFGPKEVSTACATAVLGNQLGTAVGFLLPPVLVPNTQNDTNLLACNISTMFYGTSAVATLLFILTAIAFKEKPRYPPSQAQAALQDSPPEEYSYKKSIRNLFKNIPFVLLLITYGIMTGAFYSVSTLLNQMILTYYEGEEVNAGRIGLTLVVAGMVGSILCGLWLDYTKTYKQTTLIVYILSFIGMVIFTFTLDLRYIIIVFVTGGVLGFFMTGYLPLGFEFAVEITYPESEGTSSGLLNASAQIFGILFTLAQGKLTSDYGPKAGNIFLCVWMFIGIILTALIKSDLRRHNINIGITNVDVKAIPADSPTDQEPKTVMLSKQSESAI
As to the kind of experiment: co-IP; KYSE-150 cells stably expressing 3×FLAG-FLVCR1; immunoprecipitation lysis buffer, anti-FLAG beads, western blot.

Regarding “chromosome segregation 1–like (CSE1L) (from UniProt P55060 1-971)”, the binding entry is “binds”.
